These are yes or no findings as the source states them, for the method shown. Some binding calls cover weakened binding; strength is not graded here. For some of these results: Sequences can lack the tags named with a protein. Values belong to the binder of their own block, whether it stands above or below them.
Key:
[1] = molecular target: soluble human insulin receptor-immunoglobulin heavy chain chimera (human) (UniProt P06213); assay: BIAcore competition, MBP fusions
[2] = molecular target: human insulin receptor (HIR), purified from transfected cells after solubilization with Triton X-100 (human) (UniProt P06213); assay: 125I-insulin competition
[3] = molecular target: soluble human insulin receptor-immunoglobulin heavy chain chimera (human) (UniProt P06213); assay: FP competition with FITC-RP9 on sIR-Fc

By UniProt entry, the sequences of proteins in these tests, tags left out. Where a name states a change or a piece, a line headed by the entry shows the natural chain unless it says otherwise. Chains listed by the source or under a name are the forms on record and can include a tag or linker. Residues count along the entry.
soluble human insulin receptor-immunoglobulin heavy chain chimera (P06213, residues 28-956): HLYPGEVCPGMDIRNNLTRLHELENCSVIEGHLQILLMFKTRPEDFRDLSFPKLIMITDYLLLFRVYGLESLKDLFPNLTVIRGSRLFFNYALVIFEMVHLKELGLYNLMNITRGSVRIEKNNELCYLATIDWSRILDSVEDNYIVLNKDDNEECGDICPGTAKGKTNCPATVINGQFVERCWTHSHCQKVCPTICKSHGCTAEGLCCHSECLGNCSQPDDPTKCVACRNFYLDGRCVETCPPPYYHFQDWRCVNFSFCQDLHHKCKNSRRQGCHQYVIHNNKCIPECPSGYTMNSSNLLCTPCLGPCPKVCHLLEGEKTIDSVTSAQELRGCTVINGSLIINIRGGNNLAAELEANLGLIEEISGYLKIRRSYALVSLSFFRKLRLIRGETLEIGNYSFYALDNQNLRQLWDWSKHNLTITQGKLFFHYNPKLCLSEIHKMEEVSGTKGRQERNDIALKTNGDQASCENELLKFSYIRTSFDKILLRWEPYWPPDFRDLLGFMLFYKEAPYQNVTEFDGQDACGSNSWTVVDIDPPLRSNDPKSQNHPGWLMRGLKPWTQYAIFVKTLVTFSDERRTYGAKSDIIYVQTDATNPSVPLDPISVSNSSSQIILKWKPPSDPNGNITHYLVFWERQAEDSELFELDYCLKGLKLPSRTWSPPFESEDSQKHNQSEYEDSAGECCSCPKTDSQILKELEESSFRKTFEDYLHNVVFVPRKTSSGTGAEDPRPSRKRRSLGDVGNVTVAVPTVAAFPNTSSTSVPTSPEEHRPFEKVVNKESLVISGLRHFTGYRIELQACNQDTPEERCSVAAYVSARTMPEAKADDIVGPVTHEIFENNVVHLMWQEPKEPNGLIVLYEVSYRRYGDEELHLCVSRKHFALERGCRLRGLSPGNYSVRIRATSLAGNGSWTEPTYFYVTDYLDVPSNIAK
human insulin receptor (HIR), purified from transfected cells after solubilization with Triton X-100 (P06213, form named): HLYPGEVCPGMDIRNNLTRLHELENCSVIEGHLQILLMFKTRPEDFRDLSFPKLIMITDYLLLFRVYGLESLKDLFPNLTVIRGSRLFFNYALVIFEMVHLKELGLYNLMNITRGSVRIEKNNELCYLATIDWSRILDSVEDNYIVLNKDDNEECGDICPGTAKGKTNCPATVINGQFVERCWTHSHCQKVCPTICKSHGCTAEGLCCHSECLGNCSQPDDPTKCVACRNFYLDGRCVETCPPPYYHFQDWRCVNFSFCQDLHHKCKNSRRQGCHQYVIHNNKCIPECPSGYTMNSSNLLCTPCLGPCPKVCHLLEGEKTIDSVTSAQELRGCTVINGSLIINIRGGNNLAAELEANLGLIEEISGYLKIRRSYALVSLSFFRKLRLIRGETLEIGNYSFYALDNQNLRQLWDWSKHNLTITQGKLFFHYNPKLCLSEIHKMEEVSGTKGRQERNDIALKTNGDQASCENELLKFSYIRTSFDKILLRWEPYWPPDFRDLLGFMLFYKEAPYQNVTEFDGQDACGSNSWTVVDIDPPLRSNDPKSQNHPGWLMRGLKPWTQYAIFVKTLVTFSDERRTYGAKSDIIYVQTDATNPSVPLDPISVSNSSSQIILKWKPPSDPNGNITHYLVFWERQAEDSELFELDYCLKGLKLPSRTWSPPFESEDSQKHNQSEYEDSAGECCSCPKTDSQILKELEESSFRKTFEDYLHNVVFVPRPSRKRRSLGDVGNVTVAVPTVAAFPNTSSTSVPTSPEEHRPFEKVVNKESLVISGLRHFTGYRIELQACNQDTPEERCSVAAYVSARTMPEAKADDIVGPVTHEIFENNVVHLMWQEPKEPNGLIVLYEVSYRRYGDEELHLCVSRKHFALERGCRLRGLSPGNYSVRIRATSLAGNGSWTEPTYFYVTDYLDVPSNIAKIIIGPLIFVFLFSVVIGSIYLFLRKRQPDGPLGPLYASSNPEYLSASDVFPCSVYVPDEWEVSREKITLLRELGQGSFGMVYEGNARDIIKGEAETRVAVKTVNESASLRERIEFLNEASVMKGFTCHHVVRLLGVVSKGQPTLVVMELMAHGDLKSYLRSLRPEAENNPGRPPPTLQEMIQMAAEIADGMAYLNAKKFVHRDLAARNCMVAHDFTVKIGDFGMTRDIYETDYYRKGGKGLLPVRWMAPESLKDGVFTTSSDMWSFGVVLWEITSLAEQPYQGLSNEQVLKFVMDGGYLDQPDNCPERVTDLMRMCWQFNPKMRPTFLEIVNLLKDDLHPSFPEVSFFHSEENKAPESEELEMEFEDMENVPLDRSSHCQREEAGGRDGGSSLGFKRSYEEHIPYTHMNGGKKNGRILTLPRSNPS

B1: H2C-3aa-H2C maltose binding protein fusion (protein)
chain: NNNNLGIEGRISEFIEGRAQPAMAFHENFYDWFVRQVSGGSFHENFYDWFVRQVSAAAGAPVPYPDPLEPRAA
- binding [1]: binds

B2: 537 (RP9-6aa-D8) (peptide)
peptide: MADYKDDDDKGSLDESFYDWFERQLGKKGGSGGSWLDQEWAWVQCEVYGRGCPSAAAGAPVPYPDPLEPRPG
- binding [2]: binds

B5: 521 (RP9-6aa-RP9) (peptide)
peptide: MADYKDDDDKGSLDESFYDWFERQLGKKGGSGGSGSLDESFYDWFERQLGKKAAAGAPVPYPDPLEPRPG
- binding [2]: binds

B6: H2C-9aa-H2C maltose binding protein fusion (protein)
chain: NNNNLGIEGRISEFIEGRAQPAMAFHENFYDWFVRQVSGGSGGSGGSFHENFYDWFVRQVSAAAGAPVPYPDPLEPRAA
- binding [1]: binds

Results, then the binder that gave them:

- binding [3]: binds
B3: RP9 minus terminal lysines (…) (peptide)
peptide: GSLDESFYDWFERQLG

- binding [2]: binds
B4: 540 (peptide)
peptide: MADYKDDDDKWLDQEWAWVQCEVYGRGCPSAAAGAPVPYPDPLEPRPG

- binding [2]: binds
B7: 538 (RP9-12aa-D8) (peptide)
peptide: MADYKDDDDKGSLDESFYDWFERQLGKKGGSGGSGGSGGSWLDQEWAWVQCEVYGRGCPSAAAGAPVPYPDPLEPRPG
